Data as given in patent US20050059588A1, “Peptides which generate antibodies resulting in lysis of pathologically adherent erythrocytes” (REGENTS OF THE UNIVERSITY OF CALIFORNIA, priority 2003, published 2005).
No constants are given. Whether binding was seen depends on the method and setting. Some binding calls cover weakened binding; strength is not graded here.

The chains behind the UniProt entries cited, without tags or fusion partners. Residues count along the entry.
UniProt P16671, residues 2-472: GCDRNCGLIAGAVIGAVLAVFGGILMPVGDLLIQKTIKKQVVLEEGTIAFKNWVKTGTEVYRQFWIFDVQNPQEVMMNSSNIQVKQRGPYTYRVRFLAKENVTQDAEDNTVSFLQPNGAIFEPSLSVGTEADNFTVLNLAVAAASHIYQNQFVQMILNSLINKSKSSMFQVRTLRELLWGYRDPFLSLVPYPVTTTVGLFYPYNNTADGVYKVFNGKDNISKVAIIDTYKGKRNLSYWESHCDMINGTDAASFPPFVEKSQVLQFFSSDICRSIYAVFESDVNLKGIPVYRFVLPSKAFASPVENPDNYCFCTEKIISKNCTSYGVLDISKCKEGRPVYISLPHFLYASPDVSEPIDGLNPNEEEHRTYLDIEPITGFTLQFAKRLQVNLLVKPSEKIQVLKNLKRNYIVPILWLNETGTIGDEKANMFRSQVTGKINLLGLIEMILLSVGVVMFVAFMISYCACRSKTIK

Biological target: CD36 on CD36 transfected CHO cells (UniProt P16671)
Experiment: 40 ug/ml biotin labeled peptide on CD36 transfected CHO cells, Alexa-conjugated streptavidin

- binding: binds
Binder: YETFSKLIKIFQDH (biotin label (position not given)) [biotin labeled DBR peptide]
